From PubChem BioAssay AID493014 (National Center for Advancing Translational Sciences (NCATS), 2011)
The other results are listed elsewhere or left out. Shown are side measurements of this screen, not its main read-out; they come without a call. Compounds called inactive in the main read-out are mostly missing here. Words in brackets tell the shape of the fitted curve; partial curves, single points and poor fits give uncertain potencies. Square brackets hold non-standard residues; d marks the D form. Peptide text beside a SMILES is read from it. * marks the point of attachment. ξ: configuration not given here. ξY = NC(Cc1ccc(O)cc1)C(=O)O; Cbz = O=C(OCc1ccccc1)*; OtBu = CC(C)(C)O*; tBu = CC(C)(C)*

Test: qHTS Assay to Find Inhibitors of Chronic Active B-Cell Receptor Signaling
Conditions: ABC-DLBCL IkBa-CBG/CBR reporter, luminescence ratio (green luciferase fused to IkBa over red control in TMD8 lymphoma cells), 4 h
Method in brief: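 Doxycycline induced both beetle luciferases in TMD8 lymphoma cells; IKK-driven degradation limits the IkappaBalpha-fused green signal, while red luminescence normalises for cell number and nonspecific effects. Compounds tested up to 46 uM, 4 hrs.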

[1] = measured here: CBR red luminescence, cell number
[2] = measured here: IkBa-CBG green luminescence

Row | Structure (SMILES) | AC50 [1] | AC50 [2]
1 | CC(=O)Oc1ccccc1C(=O)Oc1ccc(/C=N/n2cnnc2)cc1 | 2 µM [falling, full curve] | –
2 | Cc1ccc(N2C(N)=C(C#N)C(c3cccs3)C3=C2CC(C)(C)CC3=O)cc1 (stereo unspecified) | 29.1 µM [falling, single point] | –
3 | CCC(C)NC(=O)c1cc2cc3ccc(OC)cc3nc2o1 (stereo unspecified) | 3.16 µM [rising, partial curve, poor fit] | –
4 | O=[N+]([O-])c1ccc(CSc2nnc(Cc3ccccc3)n2-c2ccc(F)cc2)cc1 | 20.6 µM [falling, single point] | –
5 | N#C/C(=C\c1ccc(N2CCOCC2)cc1)c1ccccc1 | 2.31 µM [rising, partial curve] | –
6 | CN(CC(=O)Nc1ccc(F)cc1)c1ccc(S(=O)(=O)N2CCCCC2)cc1[N+](=O)[O-] | 8.2 µM [falling, partial curve, poor fit] | –
7 | CCOC(=O)C(=O)Nc1sc(C(=O)N2CCOCC2)c(C)c1C#N | 1.58 µM [rising, partial curve, poor fit] | –
8 | C#CCNC(=O)C1=C[C@H](c2cn(C(C)=O)c3ccccc23)C[C@H](OCc2ccc(CO)cc2)O1 | 3.98 µM [rising, single point] | –
9 | Cc1nc2nc(-c3ccccc3)cc(=O)n2[nH]1 | 14.6 µM [falling, partial curve] | –
10 | COc1ccc(OC)c2sc(NC(=O)C(C)C)nc12 | 1.46 µM [falling, partial curve, poor fit] | –
11 | Cc1cc(C)cc(C(=O)NCC(=O)OCC(=O)Nc2cccnc2Cl)c1 | 35.5 µM [rising, single point] | –
12 | C[C@H](CO)N1C[C@H](C)[C@@H](CN(C)C(=O)Nc2ccccc2)Oc2ccc(NS(=O)(=O)c3ccc(F)cc3)cc2C1=O | 32.6 µM [rising, single point] | –
13 | O=C(CNC(=O)c1ccco1)OCC(=O)c1ccccc1 | 6.31 µM [rising, single point] | –
14 | O=C(CCCc1c[nH]c2ccccc12)NCc1ccccc1C(F)(F)F | 8.91 µM [falling, partial curve, poor fit] | –
15 | COc1ccc(OCCCc2c(C)n[nH]c2C)cc1 | 29.1 µM [rising, partial curve, poor fit] | –
16 | CC(=O)Nc1nc2cc3c(cc2s1)OCCO3 | 35.5 µM [falling, single point] | –
17 | COc1ccc(CCN2C(=O)NC(NC(C)=O)(C(F)(F)F)C2=O)cc1OC (stereo unspecified) | 16.4 µM [rising, partial curve, poor fit] | –
18 | CC(C)(C)c1ccc(C(=O)N/N=C/c2cccc(Cl)c2)cc1 | 2.06 µM [rising, partial curve, poor fit] | –
19 | Cc1ccc(Cc2nc3ccccc3[nH]2)cc1 | 1.58 µM [falling, full curve, poor fit] | –
20 | Cc1cccc(C(=O)NCC(c2ccco2)S(=O)(=O)c2cccs2)c1 (stereo unspecified) | 17.8 µM [falling, single point] | –
21 | Cc1ccc(NC(=O)CSc2nnc3ccc4ccccc4n23)cc1 | 15.8 µM [rising, partial curve, poor fit] | –

Row | Structure (SMILES) | AC50 [1] | AC50 [2]
22 | CC1CCN(C(=O)COC(=O)CCCN2C(=O)c3cccc4cccc(c34)C2=O)CC1 | 0.0891 µM [rising, full curve, poor fit] | –
23 | CN(Cc1ccccc1)C(=O)c1ccccc1NC(=O)C1=CSCCO1 | 14.1 µM [rising, partial curve, poor fit] | –
24 | COCCn1c(SCc2nc3ccccc3c(=O)[nH]2)nc2ccccc2c1=O | 2.51 µM [falling, full curve, poor fit] | –
25 | O=C(NCCN1CCN(c2cccc(Cl)c2)CC1)Nc1ccccc1 | 5.01 µM [rising, single point] | –
26 | CCCC(C)n1[nH]c(=O)c2c(C)cc(C)nc21 (stereo unspecified) | 16.4 µM [rising, partial curve, poor fit] | –
27 | Cc1nc2c(-c3ccccc3)c(C)nn2c(C)c1CCC(=O)O | 16.4 µM [falling, partial curve, poor fit] | –
28 | CCCCNC1C(CC)C(CCC)C(C#N)(C#N)C1(C#N)C#N (stereo unspecified) | 14.6 µM [falling, partial curve] | –
29 | CC(C)(C)OC(=O)C(Cc1ccc(OC(C)(C)C)cc1)NC(=O)CNC(=O)CNC(=O)OCc1ccccc1 (stereo not drawn) (Cbz-Gly-Gly-[ξY](tBu)-OtBu) | 18.4 µM [rising, partial curve] | –
30 | CCOc1ccc(/C=C/C(=O)c2ccccc2)cc1OC | 14.6 µM [falling, single point] | –
31 | CC(=O)Nc1ccc2nc(-c3ccc(Br)o3)[nH]c2c1 | 20.6 µM [falling, single point] | 3.26 µM [rising, full curve, poor fit]
32 | CCN(CC)CCn1c(NC(=O)c2ccc(C(F)(F)F)cc2)nc2ccccc21 | 35.5 µM [falling, single point] | –
33 | C=CCN(C(=O)c1cccc(N2C(=O)C3CC=CC(C)C3C2=O)c1)c1ccccc1 (stereo unspecified) | 8.91 µM [falling, partial curve] | –
34 | S=c1[nH]cnc2sc(Nc3ccccc3)nc12 | 17.8 µM [rising, partial curve, poor fit] | –
35 | O=C(O)C1(S(=O)(=O)c2ccc(Cl)cc2)CCC1 | 5.62 µM [rising, single point] | –
36 | Cc1nc2ccc(NC(=O)N3CCSCC3)cc2nc1C | 9.2 µM [falling, partial curve, poor fit] | –
37 | COc1ccc(-c2ocnc2C(=O)N2CCN(C(=O)C(c3ccccc3)c3ccccc3)CC2)cc1 | 35.5 µM [falling, single point] | –
38 | O=C1N/C(=C/c2ccsc2)C(=O)N1c1ccccc1 | 6.31 µM [falling, full curve] | –
39 | CCC(CNc1cc(OC)cc2cccnc12)NC1CCCCC1 (stereo unspecified) | 7.94 µM [falling, partial curve] | –
40 | CC1(C)Cc2c(sc(NC(=O)c3ccc(C(=O)c4ccccc4)cc3)c2C(N)=O)C(C)(C)N1 | 8.91 µM [falling, partial curve] | 20 µM [rising, single point]
41 | CCOC(=O)[C@H]1[C@H]2COc3ccc(Br)cc3[C@@H]2N2C(=O)CN(Cc3ccc(F)cc3)C(=O)[C@@]12C | 29.1 µM [falling, single point] | 13 µM [rising, partial curve, poor fit]
42 | COc1cc2nc(NCCCN3CCN(C)CC3)n3nc(-c4ccccc4)nc3c2cc1OC | 5.17 µM [falling, partial curve, poor fit] | –

Record cards, from the list above. Values in the order: AC50 [1] | AC50 [2]
Cc1nc2c(-c3ccccc3)c(C)nn2c(C)c1CCC(=O)O in the list: 16.4 µM [falling, partial curve, poor fit] | –
CN(Cc1ccccc1)C(=O)c1ccccc1NC(=O)C1=CSCCO1 in the list: 14.1 µM [rising, partial curve, poor fit] | –
CCCCNC1C(CC)C(CCC)C(C#N)(C#N)C1(C#N)C#N (stereo unspecified) in the list: 14.6 µM [falling, partial curve] | –

Going on with the list.

Row | Structure (SMILES) | AC50 [1] | AC50 [2]
43 | CSc1ccc(N2C(=O)NC3(CCCCC3)C2=O)cc1 | 3.55 µM [rising, full curve, poor fit] | –
44 | Cc1nn(Cc2ccccc2)c(Cl)c1/C=C/C(=O)OCC(=O)NC(C)C(C)C (stereo unspecified) | 6.31 µM [rising, partial curve, poor fit] | –
45 | O=C(CSc1nc2ccccc2c(=O)n1Cc1ccco1)N1CCN(c2ccccc2)CC1 | 5.62 µM [falling, full curve] | –
46 | O=C1Nc2ccccc2Oc2cc(Oc3ccccc3)ccc21 | 18.4 µM [rising, partial curve] | –
47 | O=C(NNC(=O)C12CC3CC(CC(Cl)(C3)C1)C2)c1csc(N2CCOCC2)n1 | 3.16 µM [falling, partial curve, poor fit] | –
48 | Cc1ccc(Nc2nc(NCc3ccco3)c3ccccc3n2)cc1 | – | 11.2 µM [falling, partial curve, poor fit]
49 | Clc1cccc(CON/C=N/c2ncnc3sccc23)c1 | 10 µM [falling, partial curve, poor fit] | –
50 | CNc1ncc(C(=O)c2ccccc2)s1 | 11.2 µM [falling, partial curve] | –
51 | COC(=O)c1ccc2c(=O)n(CCCCCC(=O)O)c(=O)[nH]c2c1 | 29.1 µM [falling, single point] | –
52 | O=C(CSc1nc(C2CCCCC2)nc2ccccc12)NCc1ccco1 | 28.2 µM [falling, partial curve, poor fit] | –
53 | O=C(Nc1ccc2c(c1)OCCO2)c1ccccc1 | 25.1 µM [falling, single point] | –
54 | CCn1c(SCC(=O)c2ccc(O)c(O)c2)nnc1-c1ccccc1OC | 10 µM [falling, partial curve] | –
55 | CCOC(=O)c1cc2c(s1)-c1c(C)cccc1OC2 | 20.6 µM [rising, partial curve, poor fit] | –
56 | CN(c1ccccc1)S(=O)(=O)c1ccc(NC(=O)c2nc(S(C)(=O)=O)ncc2Cl)cc1 | 7.94 µM [falling, partial curve, poor fit] | –
57 | CCc1ccc(-c2c(C)sc(NC(C)=O)c2C(N)=O)cc1 | 1 µM [rising, partial curve, poor fit] | 10 µM [falling, partial curve]
58 | CC(=O)c1c(C(C)=O)c(C)n(-c2nc(-c3ccccc3)c(C)s2)c1C | 16.4 µM [falling, single point] | –
59 | Cc1cnc(C(=O)OCC(=O)Nc2ccc(C)c(S(=O)(=O)N(C)C)c2)cn1 | 4.47 µM [rising, partial curve] | –
60 | CSc1ccc(CC(=O)N2CCC(n3nccc3NC(=O)C3CC3)CC2)cc1 | 25.1 µM [rising, partial curve, poor fit] | –
61 | NC(=O)c1nn(-c2ccccc2)nc1N | 0.92 µM [falling, full curve, poor fit] | –
62 | CC(C)=NNc1nc2sc3c(c2c(=O)[nH]1)CC(C)(C)OC3 | 4.11 µM [rising, partial curve, poor fit] | –
